# Marks after values point to notes of the source that are not given here.
# Experiments:
# Type in all cases: cell-based, human
# [1] = biological target: α1β2 97-3,5-F2-Phe GABAA receptor; assay: GABA concentration-response, voltage-clamp in oocytes, β2 97-3,5-F2-Phe
# [2] = biological target: α1β2 157-4-Me-Phe GABAA receptor; assay: GABA concentration-response, voltage-clamp in oocytes, β2 157-4-Me-Phe
# [3] = biological target: α1β2 97-3,4,5-F3-Phe GABAA receptor; assay: GABA concentration-response, voltage-clamp in oocytes, β2 97-3,4,5-F3-Phe
# [4] = biological target: α1β2 205-3,4,5-F3-Phe GABAA receptor; assay: GABA concentration-response, voltage-clamp in oocytes, β2 205-3,4,5-F3-Phe
# [5] = biological target: α1β2 157-3,4,5-F3-Phe GABAA receptor; assay: GABA concentration-response, voltage-clamp in oocytes, β2 157-3,4,5-F3-Phe
# [6] = biological target: α1β2 157-3,5-F2-Phe GABAA receptor; assay: GABA concentration-response, voltage-clamp in oocytes, β2 157-3,5-F2-Phe
# [7] = biological target: α1β2 205-3,5-F2-Phe GABAA receptor; assay: GABA concentration-response, voltage-clamp in oocytes, β2 205-3,5-F2-Phe
# [8] = biological target: α1 65-4-F-Phe β2 GABAA receptor; assay: GABA concentration-response, voltage-clamp in oocytes, α1 65-4-F-Phe
smiles,measurement,setting,value
NCCCC(=O)O [GABA],EC50,"[1]; α1β2 97-3,5-F2-Phe",420 µM
same,LogEC50 ± SEM,"[1]; α1β2 97-3,5-F2-Phe, log of molar EC50",−3.372 ± 0.05 ^a
same,additional increase in EC50,"[1]; β2 97-3,5-F2-Phe vs β2 97-4-F-Phe",22 fold
same,EC50,[2],150 µM
same,LogEC50 ± SEM,[2]; log of molar EC50,−3.817 ± 0.15 ^a
same,EC50,"[3]; α1β2 97-3,4,5-F3-Phe",9900 µM
same,LogEC50 ± SEM,"[3]; α1β2 97-3,4,5-F3-Phe, log of molar EC50",−2.002 ± 0.04 ^a
same,final increase in EC50,"[3]; β2 97-3,4,5-F3-Phe vs β2 97-3,5-F2-Phe",24 fold
same,EC50,[4],90 µM
same,LogEC50 ± SEM,[4]; log of molar EC50,−4.039 ± 0.05 ^a
same,EC50,[5],110 µM
same,LogEC50 ± SEM,[5]; log of molar EC50,−3.950 ± 0.08 ^a
same,EC50,[6],420 µM
same,LogEC50 ± SEM,[6]; log of molar EC50,−3.371 ± 0.04 ^a
same,EC50,[7],70 µM
same,LogEC50 ± SEM,[7]; log of molar EC50,−4.174 ± 0.06 ^a
same,EC50,[8],11 µM
same,LogEC50 ± SEM,[8]; log of molar EC50,−4.962 ± 0.06 ^a

# — article PMC2649369 (The Journal of neuroscience : the official journal of the …, 2007)
